# Assay results reported in the supplement of paper PMC8728848.
# This is one part of the list.
# B1: B3GalT2 (Rattus norvegicus) (protein)
# chain: LMLQWRRRHCCFAKMSWNAKRSLFRTHLMGVLSLVFLFAMFLFFNHHDWLPGRPGFKENPVTYTFRGFRSTKTETNQSSLRNIWKEVVPQTLRPQTATNSNNTELSPQGVTGLENTLSANGSIYNEKGTGHPNSYHFKYIINEPEKCQEKSPFLILLIAAEPGQIEARRAIRQTWGNETLAPGIQITRIFLLGISIKLNGYLQHAIQEESIQYHDIIQQEYLDTYYNLTIKTLMGMNWVATYCPHTPYVMKTDSDMFVNTEYLIHKLLKPDLPPRHNYFTGYLMRGYAPNRNKDSKWYMPPDLYPSERYPVFCSGTGYVFSGDLAEKIFKVSLGIRRLHLEDVYVGICLAKLRVDPVPPPNEFVFNHWRVSYSSCKYSHLITSHQFQPSELIKYWNHLQQNKHNACVNAAKEKAGRYRHRKLH
# Experiments:
# Assay in all cases: glycan array binding signal (z-score within array); higher = stronger binding
# Details in all cases: glycan notation: IUPAC condensed, linker removed
# [1] = target: Neu5Ac(a2-6)Gal(b1-4)GlcNAc(b1-2)Man(a1-3)[Man(a1-6)]Man(b1-4)GlcNAc(b1-4)GlcNAc
# Outline: (§1)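 Glycan array data were curated from 3228 arrays in the Consortium for Functional Glycomics database and kept only where the protein sequence was available. Glycan names were converted to IUPAC-condensed notation, and columns mapping to the same glycan were averaged. The binding signal is a within-array Z-score, averaged across arrays of the same protein sequence at different concentrations or buffers and across linkers. Negative Z-scores can be read as non-binding.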
# [2] = target: Neu5Ac(a2-6)Gal(b1-4)GlcNAc(b1-2)Man(a1-3)[Neu5Ac(a2-3)Gal(b1-4)GlcNAc(b1-2)Man(a1-6)]Man(b1-4)GlcNAc(b1-4)GlcNAc
# Outline: as §1
# [3] = target: Neu5Ac(a2-6)Gal(b1-4)GlcNAc(b1-2)Man(a1-3)[Neu5Ac(a2-6)Gal(b1-4)GlcNAc(b1-2)Man(a1-6)]Man(b1-4)GlcNAc(b1-4)GlcNAc
# Outline: as §1
# [4] = target: Neu5Ac(a2-6)Gal(b1-4)GlcNAc(b1-2)Man(a1-3)[Neu5Ac(a2-6)Gal(b1-4)GlcNAc(b1-2)Man(a1-6)]Man(b1-4)GlcNAc(b1-4)[Fuc(a1-6)]GlcNAc
# Outline: as §1
# [5] = target: Neu5Ac(a2-6)Gal(b1-4)GlcNAc(b1-2)Man(a1-6)Man(b1-4)GlcNAc(b1-4)GlcNAc
# Outline: as §1
# [6] = target: Neu5Ac(a2-6)Gal(b1-4)GlcNAc(b1-2)Man(a1-6)[Gal(b1-4)GlcNAc(b1-2)Man(a1-3)]Man(b1-4)GlcNAc(b1-4)GlcNAc
# Outline: as §1
# [7] = target: Neu5Ac(a2-6)Gal(b1-4)GlcNAc(b1-2)Man(a1-6)[GlcNAc(b1-2)Man(a1-3)]Man(b1-4)GlcNAc(b1-4)GlcNAc
# Outline: as §1
# [8] = target: Neu5Ac(a2-6)Gal(b1-4)GlcNAc(b1-2)Man(a1-6)[Man(a1-3)]Man(b1-4)GlcNAc(b1-4)GlcNAc
# Outline: as §1
# [9] = target: Neu5Ac(a2-6)Gal(b1-4)GlcNAc(b1-2)[Neu5Ac(a2-6)Gal(b1-4)GlcNAc(b1-4)]Man(a1-3)[GlcNAc(b1-4)][Neu5Ac(a2-6)Gal(b1-4)GlcNAc(b1-2)[Neu5Ac(a2-6)Gal(b1-4)GlcNAc(b1-6)]Man(a1-6)]Man(b1-4)GlcNAc(b1-4)GlcNAc
# Outline: as §1
# [10] = target: Neu5Ac(a2-6)Gal(b1-4)GlcNAc(b1-2)[Neu5Ac(a2-6)Gal(b1-4)GlcNAc(b1-4)]Man(a1-3)[GlcNAc(b1-4)][Neu5Ac(a2-6)Gal(b1-4)GlcNAc(b1-4)Man(a1-6)]Man(b1-4)GlcNAc(b1-4)GlcNAc
# Outline: as §1
# [11] = target: Neu5Ac(a2-6)Gal(b1-4)GlcNAc(b1-2)[Neu5Ac(a2-6)Gal(b1-4)GlcNAc(b1-6)]Man(a1-6)[Neu5Ac(a2-6)Gal(b1-4)GlcNAc(b1-2)Man(a1-3)][GlcNAc(b1-4)]Man(b1-4)GlcNAc(b1-4)GlcNAc
# Outline: as §1
# [12] = target: Neu5Ac(a2-6)Gal(b1-4)GlcNAc(b1-3)Gal(b1-3)GlcNAc
# Outline: as §1
# [13] = target: Neu5Ac(a2-6)Gal(b1-4)GlcNAc(b1-3)Gal(b1-4)GlcNAc
# Outline: as §1
# [14] = target: Neu5Ac(a2-6)Gal(b1-4)GlcNAc(b1-3)Gal(b1-4)GlcNAc(b1-2)Man(a1-3)[Neu5Ac(a2-6)Gal(b1-4)GlcNAc(b1-3)Gal(b1-4)GlcNAc(b1-2)Man(a1-6)]GalNAc
# Outline: as §1
# [15] = target: Neu5Ac(a2-6)Gal(b1-4)GlcNAc(b1-3)Gal(b1-4)GlcNAc(b1-3)Gal(b1-4)GlcNAc
# Outline: as §1
# [16] = target: Neu5Ac(a2-6)Gal(b1-4)GlcNAc(b1-3)Gal(b1-4)GlcNAc(b1-3)Gal(b1-4)GlcNAc(b1-2)Man(a1-3)[Neu5Ac(a2-6)Gal(b1-4)GlcNAc(b1-3)Gal(b1-4)GlcNAc(b1-3)Gal(b1-4)GlcNAc(b1-2)Man(a1-6)]GalNAc
# Outline: as §1
# [17] = target: Neu5Ac(a2-6)Gal(b1-4)GlcNAc(b1-3)Gal(b1-4)GlcNAc(b1-3)GalNAc
# Outline: as §1
# [18] = target: Neu5Ac(a2-6)Gal(b1-4)GlcNAc(b1-3)Gal(b1-4)GlcNAc(b1-3)[Neu5Ac(a2-6)Gal(b1-4)GlcNAc(b1-3)Gal(b1-4)GlcNAc(b1-6)]GalNAc
# Outline: as §1
# [19] = target: Neu5Ac(a2-6)Gal(b1-4)GlcNAc(b1-3)Gal(b1-4)GlcNAc(b1-6)[Gal(b1-3)]GalNAc
# Outline: as §1
# [20] = target: Neu5Ac(a2-6)Gal(b1-4)GlcNAc(b1-3)Gal(b1-4)[Fuc(a1-3)]GlcNAc(b1-3)Gal(b1-4)[Fuc(a1-3)]GlcNAc
# Outline: as §1
# [21] = target: Neu5Ac(a2-6)Gal(b1-4)GlcNAc(b1-3)GalNAc
# Outline: as §1
# [22] = target: Neu5Ac(a2-6)Gal(b1-4)GlcNAc(b1-3)[Neu5Ac(a2-6)Gal(b1-4)GlcNAc(b1-6)]GalNAc
# Outline: as §1
# [23] = target: Neu5Ac(a2-6)Gal(b1-4)GlcNAc(b1-6)GalNAc
# Outline: as §1
# [24] = target: Neu5Ac(a2-6)Gal(b1-4)GlcNAc(b1-6)[Gal(b1-3)GlcNAc(b1-3)]Gal(b1-4)Glc
# Outline: as §1
# [25] = target: Neu5Ac(a2-6)Gal(b1-4)GlcNAc(b1-6)[Gal(b1-3)]GalNAc
# Outline: as §1
# [26] = target: Neu5Ac(a2-6)Gal(b1-4)GlcNAc6S
# Outline: as §1
# Neu5Ac(a2-6)GalNAc = target: Neu5Ac(a2-6)GalNAc
# Outline: as §1
# [27] = target: Neu5Ac(a2-6)GalNAc(b1-4)GlcNAc
# Outline: as §1
# [28] = target: Neu5Ac(a2-6)GalNAc(b1-4)GlcNAc6S
# Outline: as §1
# [29] = target: Neu5Ac(a2-6)GlcNAc(b1-4)GlcNAc
# Outline: as §1
# [30] = target: Neu5Ac(a2-6)GlcNAc(b1-4)GlcNAc(b1-4)GlcNAc
# Outline: as §1
binder,measurement,setting,value
B1,glycan array binding signal (z-score),[1],0.491
same,glycan array binding signal (z-score),[2],-0.933
same,glycan array binding signal (z-score),[3],0.054
same,glycan array binding signal (z-score),[4],0.659
same,glycan array binding signal (z-score),[5],0.128
same,glycan array binding signal (z-score),[6],-0.96
same,glycan array binding signal (z-score),[7],-0.887
same,glycan array binding signal (z-score),[8],0.005
same,glycan array binding signal (z-score),[9],2.01
same,glycan array binding signal (z-score),[10],1.82
same,glycan array binding signal (z-score),[11],-0.403
same,glycan array binding signal (z-score),[12],-0.595
same,glycan array binding signal (z-score),[13],0.242
same,glycan array binding signal (z-score),[14],-0.161
same,glycan array binding signal (z-score),[15],0.619
same,glycan array binding signal (z-score),[16],2.1
same,glycan array binding signal (z-score),[17],-0.826
same,glycan array binding signal (z-score),[18],-0.723
same,glycan array binding signal (z-score),[19],-0.783
same,glycan array binding signal (z-score),[20],0.268
same,glycan array binding signal (z-score),[21],-0.64
same,glycan array binding signal (z-score),[22],-1.14
same,glycan array binding signal (z-score),[23],0.098
same,glycan array binding signal (z-score),[24],-0.215
same,glycan array binding signal (z-score),[25],-0.104
same,glycan array binding signal (z-score),[26],0.926
same,glycan array binding signal (z-score),Neu5Ac(a2-6)GalNAc,1.23
same,glycan array binding signal (z-score),[27],0.082
same,glycan array binding signal (z-score),[28],-0.328
same,glycan array binding signal (z-score),[29],-0.752
same,glycan array binding signal (z-score),[30],0.862

# Two successive entries from above:
binder,measurement,setting,value
B1,glycan array binding signal (z-score),[5],0.128
same,glycan array binding signal (z-score),[6],-0.96
